Source: PMC8431828
These are yes or no findings as the source states them, for the method shown. Binding seen in cells or lysates may run through a third protein. Some entries that bind do so weakly or less than the wild type.

Protein sequences, listed by entry. Tags and fused reporters are not part of them.
UniProt Q8X1E6: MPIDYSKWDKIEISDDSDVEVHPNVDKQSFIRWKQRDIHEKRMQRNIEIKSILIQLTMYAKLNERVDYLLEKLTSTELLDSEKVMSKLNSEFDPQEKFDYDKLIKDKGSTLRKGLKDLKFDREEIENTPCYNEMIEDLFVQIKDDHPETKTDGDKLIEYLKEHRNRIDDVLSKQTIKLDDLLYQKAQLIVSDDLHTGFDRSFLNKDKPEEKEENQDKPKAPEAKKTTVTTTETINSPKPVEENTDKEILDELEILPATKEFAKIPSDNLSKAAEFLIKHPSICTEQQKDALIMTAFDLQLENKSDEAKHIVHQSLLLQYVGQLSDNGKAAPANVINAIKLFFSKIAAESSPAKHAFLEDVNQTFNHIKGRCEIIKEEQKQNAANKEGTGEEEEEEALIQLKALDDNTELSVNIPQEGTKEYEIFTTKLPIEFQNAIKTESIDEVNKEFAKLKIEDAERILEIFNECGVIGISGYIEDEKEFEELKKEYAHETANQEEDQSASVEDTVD
UniProt P46598: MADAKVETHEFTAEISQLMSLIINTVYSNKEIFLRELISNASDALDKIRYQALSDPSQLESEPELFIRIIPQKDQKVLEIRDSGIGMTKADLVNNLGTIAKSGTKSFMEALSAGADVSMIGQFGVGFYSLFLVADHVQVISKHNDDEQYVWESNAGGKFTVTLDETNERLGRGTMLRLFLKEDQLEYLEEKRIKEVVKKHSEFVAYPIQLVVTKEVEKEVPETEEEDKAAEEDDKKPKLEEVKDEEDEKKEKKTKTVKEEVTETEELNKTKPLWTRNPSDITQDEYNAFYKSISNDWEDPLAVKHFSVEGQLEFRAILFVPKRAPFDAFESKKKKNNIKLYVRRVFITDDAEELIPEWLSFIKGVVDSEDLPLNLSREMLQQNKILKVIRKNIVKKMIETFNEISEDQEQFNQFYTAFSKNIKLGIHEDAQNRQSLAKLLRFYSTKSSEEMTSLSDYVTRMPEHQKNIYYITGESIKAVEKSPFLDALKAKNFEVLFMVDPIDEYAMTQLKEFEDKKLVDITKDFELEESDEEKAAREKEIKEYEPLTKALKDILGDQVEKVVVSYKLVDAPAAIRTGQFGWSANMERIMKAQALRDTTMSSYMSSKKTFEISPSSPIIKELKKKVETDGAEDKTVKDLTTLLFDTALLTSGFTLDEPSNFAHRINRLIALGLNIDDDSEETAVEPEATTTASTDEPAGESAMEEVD

How the values were obtained:
Assay in all cases: co-IP; 7.5 mg of C. albicans lysate protein with IgG or α-HA agarose targeting the tagged co-chaperone, 2 hours at 4°C; 50 mM Tris-HCl pH 7.5, 1% Nonidet P 40 substitute, 0.25% deoxycholate Na, 150 mM NaCl, 5 mM EDTA, 1 mM Na2MoO4; co-immunoprecipitated Hsp90 detected by blot with an Hsp90-specific antibody
[1] = target: HA-tagged Aha1 (C. albicans)
[2] = target: HA-tagged Cdc37 (C. albicans) (UniProt Q8X1E6)
[3] = target: HA-tagged Sba1 (C. albicans)
[4] = target: TAP-tagged Sti1 (C. albicans)

Measured: binding

Candida albicans Hsp90 (wild type) (from UniProt P46598 1-707)
binds: [1] | [2] | [3] | [4]
